Measurements taken from the supplement of paper PMC10735217.
Where a name gives a salt, the structure may show the parent alone. This is one part of the list. Single values are uncertain here, since repeats match poorly.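 In a drug-repurposing library screen, luminescence reads luciferase driven by eight TEAD-binding elements, stably integrated into human kidney-derived cells. Compounds scoring over five robust Z scores above the plate mean are called hits.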

System: HEK293A TEAD-LUC reporter
Experiment: TEAD-luciferase reporter activity (YAP activation), robust Z score vs plate; higher = stronger YAP/TEAD activation
Conditions: 24 h

SMILES	TEAD-luciferase reporter activity (compound concentration: 200 nM)	TEAD-luciferase reporter activity (compound concentration: 2 uM)	TEAD-luciferase reporter activity (compound concentration: 10 uM)
CC[C@H](C)[C@@H](NC(=O)[C@@H](CCC(=O)O)NC(=O)[C@H](Cc1cnc[nH]1)NC(=O)[C@H](CC(C)C)NC(=O)[C@H](N)Cc1ccccc1)C(=O)N[C@H]1CCCCNC1=O	inactive: -0.0979	inactive: -0.515	inactive: -0.778
Cc1cc(N2C(=O)NC(=O)C2(C)C)cc(C)c1CCS(=O)(=O)N1CCC2(CC1)N=C(c1ccc(OC(F)(F)F)cc1)NC2=O	inactive: -0.677	inactive: -0.362	inactive: -0.907
CC(C)(C)c1ccc(C#Cc2ccc(C(=O)O)cc2)cc1OC1CCCCO1 (configuration not stated)	inactive: -1.04	inactive: -1.27	inactive: 1.9
Cc1nc2cnccc2n1CC1CCN(C(=O)/C=C(/c2ccccc2)c2ccc(/N=N/c3ccc(O)c(C(=O)O)c3)cc2)CC1 [Dersalazine]	inactive: -0.468	inactive: -0.563	inactive: 1.74
C[C@](Cc1c[nH]c2ccccc12)(NC(=O)OC1C2CC3CC(C2)CC1C3)C(=O)NC[C@H](NC(=O)CCC(=O)O)c1ccccc1 (some centres not stated)	inactive: -1.34	inactive: -1.73	inactive: 2.51
CC(=O)NCC1CN(c2ccc(OCC3(O)CCN(c4nc5c(cc4F)c(=O)c(C(=O)O)cn5C4CC4)CC3)c(F)c2)C(=O)O1 (configuration not stated)	inactive: -0.942	inactive: 2.09	inactive: 0.287
Cc1cccc(S(=O)(=O)Nc2ccc(C)n(CC(=O)NCCONC(=N)N)c2=O)c1	inactive: 0.0326	inactive: 0.139	inactive: 0.994
CCCCN(CCCC)CCCOc1c(C)cc(C(=O)c2cc(=O)c3ccccc3o2)cc1C [bucromarone]	inactive: -0.52	inactive: -1.37	inactive: -0.426
O=C(O)Cc1ccc2c(c1)/C(=C/CN1CCC(Cc3ccccc3)CC1)c1ccccc1CO2	inactive: -0.671	inactive: -0.756	inactive: -0.712
CC(C)(O)c1cn(-c2ccc(-c3cccc(S(C)(=O)=O)c3)cc2)c(C(C)(C)c2ccccc2Cl)n1	inactive: 0.937	inactive: 0.23	inactive: 0.266
COc1ccc(C2=N[C@@H](c3ccc(Cl)cc3)[C@@H](c3ccc(Cl)cc3)N2C(=O)N2CCNC(=O)C2)c(OC(C)C)c1	inactive: 1.01	inactive: -1.13	inactive: 0.356
Cc1cc2c(s1)Nc1ccccc1N=C2N1CCN(C)CC1 [Olanzapine]		inactive: -1	
Cc1cc2c(s1)Nc1ccccc1N=C2N1CCN(C)CC1	inactive: 3.87		inactive: -1.08
COc1ccc2[nH]c(C(=O)N3CC(C)CC(C)C3)cc2c1 (configuration not stated)	inactive: -1.04	inactive: -0.416	inactive: 1.23
CC1(C)SC2C(NC(=O)C(N)c3ccc(O)cc3)C(=O)N2C1C(=O)O (configuration not stated) [amoxicillin, CSL]	inactive: 1.76	inactive: -0.159	inactive: -0.173
CN1CC(=O)N(CCCC(=O)N2CCN(c3ccccc3)CC2)C1=O	inactive: -0.465	inactive: 0.787	inactive: -1.22
Cc1c(CN(C)C(=O)/C=C/c2cnc3c(c2)CNC(=O)[C@H](C)N3)oc2ccccc12 [Debio-1453]	inactive: -0.203	inactive: -0.83	inactive: -0.17

2 entries from above, set out differently.

| SMILES | TEAD-luciferase reporter activity (compound concentration: 200 nM) | TEAD-luciferase reporter activity (compound concentration: 2 uM) | TEAD-luciferase reporter activity (compound concentration: 10 uM) |
| --- | --- | --- | --- |
| CC(C)(C)c1ccc(C#Cc2ccc(C(=O)O)cc2)cc1OC1CCCCO1 (configuration not stated) | inactive: -1.04 | inactive: -1.27 | inactive: 1.9 |
| Cc1cccc(S(=O)(=O)Nc2ccc(C)n(CC(=O)NCCONC(=N)N)c2=O)c1 | inactive: 0.0326 | inactive: 0.139 | inactive: 0.994 |

The list goes on:

SMILES	TEAD-luciferase reporter activity (compound concentration: 200 nM)	TEAD-luciferase reporter activity (compound concentration: 2 uM)	TEAD-luciferase reporter activity (compound concentration: 10 uM)
C[N+](C)(CCOc1ccccc1)Cc1ccccc1	inactive: -2.52	inactive: -1.48	inactive: -0.882
Cc1oc(-c2cccs2)nc1CCOc1ccc(CC2SC(=O)NC2=O)c2sccc12 (configuration not stated)	inactive: 0.569	inactive: -0.139	inactive: 0.612
CCCCCCCC/N=C/N1CCC(C(c2ccccc2)c2ccccc2)CC1 [fenoctimine sulfate]	inactive: 1.42	inactive: -1.2	inactive: -0.717
CNC(=S)n1nc(-c2ccc(Cl)cc2)nc1N [Pharmaprojects No. 4538]	inactive: -1.54	inactive: -0.172	inactive: -0.948
Cc1nn(-c2ncccc2CO)cc1CN1CCC2(CC1)OCC(F)(F)c1cc(Cl)sc12	inactive: -0.686	inactive: 0.713	inactive: 1.67
CC(=O)SCC(Cc1ccccc1)C(=O)NCC(=O)OCc1ccccc1 (configuration not stated)	inactive: -0.236		active: 5.35
CC(=O)SCC(Cc1ccccc1)C(=O)NCC(=O)OCc1ccccc1 (configuration not stated) [dexecadotril]		inactive: 1.89	
Cc1ccc(N(CC2=NCCN2)c2ccc(O)cc2)cc1 [phentolamine mesylate, Novalar]	inactive: -1.44	inactive: 0.192	inactive: 2.34
O=C1C(NS(=O)(=O)c2cc3ncccc3s2)CCN1Cc1cc2ccncc2[nH]1 (configuration not stated)	inactive: 0.929	inactive: -0.685	inactive: 0.0304
O=P(O)(O)O[C@H]1[C@H](OP(=O)(O)O)[C@@H](OP(=O)(O)O)[C@H](OP(=O)(O)O)[C@@H](OP(=O)(O)O)[C@H]1OP(=O)(O)O [Sodium phytate]	inactive: -0.918	inactive: 0.206	inactive: -0.915
CN(CCc1ccccc1)CC1CCCc2cc(O)ccc21 (configuration not stated)	inactive: -1.44	inactive: -0.488	inactive: 0.615
CCc1c(CC(N)=O)c2cc(OCCCP(=O)(O)O)ccc2n1Cc1ccccc1	inactive: -1.08	inactive: -0.708	inactive: 2.7
O=C(CC1(c2ccccc2)C2CC3CC1CC(C2)C3O)N1CC(O)C1 (configuration not stated)	inactive: -0.0243	inactive: -1.71	inactive: 0.175
CC(=O)NCCCC(=O)N1CCCC2(Cc3ccccc3CN2C(C)=O)C1 (configuration not stated)	inactive: -0.895		inactive: 0.897
COc1cc2c(cc1OC)-c1c/c(=N\c3c(C)cc(C)cc3C)n(C)c(=O)n1CC2	inactive: -0.893	inactive: 0.671	inactive: -1.97
Cn1c(=O)n(-c2ccc(C(C)(C)C#N)cc2)c2c3cc(-c4cnc5ccccc5c4)ccc3ncc21 [dactolisib]	inactive: -2.23	inactive: -1.56	inactive: 2.07
